Results: the supplement of paper PMC11732987, “Enantioselective OTUD7B fragment discovery through chemoproteomics screening and high-throughput optimisation” (Communications Chemistry, 2025)
This is one part of the list. The data scatter; read single values as rough.

Chains of the proteins cited; added tags and fusions are not shown. Lines headed by an entry give the natural chain unless they say otherwise; changes in a name come on top. Residues count along the entry.
UniProt Q92616, whole entry, looked up: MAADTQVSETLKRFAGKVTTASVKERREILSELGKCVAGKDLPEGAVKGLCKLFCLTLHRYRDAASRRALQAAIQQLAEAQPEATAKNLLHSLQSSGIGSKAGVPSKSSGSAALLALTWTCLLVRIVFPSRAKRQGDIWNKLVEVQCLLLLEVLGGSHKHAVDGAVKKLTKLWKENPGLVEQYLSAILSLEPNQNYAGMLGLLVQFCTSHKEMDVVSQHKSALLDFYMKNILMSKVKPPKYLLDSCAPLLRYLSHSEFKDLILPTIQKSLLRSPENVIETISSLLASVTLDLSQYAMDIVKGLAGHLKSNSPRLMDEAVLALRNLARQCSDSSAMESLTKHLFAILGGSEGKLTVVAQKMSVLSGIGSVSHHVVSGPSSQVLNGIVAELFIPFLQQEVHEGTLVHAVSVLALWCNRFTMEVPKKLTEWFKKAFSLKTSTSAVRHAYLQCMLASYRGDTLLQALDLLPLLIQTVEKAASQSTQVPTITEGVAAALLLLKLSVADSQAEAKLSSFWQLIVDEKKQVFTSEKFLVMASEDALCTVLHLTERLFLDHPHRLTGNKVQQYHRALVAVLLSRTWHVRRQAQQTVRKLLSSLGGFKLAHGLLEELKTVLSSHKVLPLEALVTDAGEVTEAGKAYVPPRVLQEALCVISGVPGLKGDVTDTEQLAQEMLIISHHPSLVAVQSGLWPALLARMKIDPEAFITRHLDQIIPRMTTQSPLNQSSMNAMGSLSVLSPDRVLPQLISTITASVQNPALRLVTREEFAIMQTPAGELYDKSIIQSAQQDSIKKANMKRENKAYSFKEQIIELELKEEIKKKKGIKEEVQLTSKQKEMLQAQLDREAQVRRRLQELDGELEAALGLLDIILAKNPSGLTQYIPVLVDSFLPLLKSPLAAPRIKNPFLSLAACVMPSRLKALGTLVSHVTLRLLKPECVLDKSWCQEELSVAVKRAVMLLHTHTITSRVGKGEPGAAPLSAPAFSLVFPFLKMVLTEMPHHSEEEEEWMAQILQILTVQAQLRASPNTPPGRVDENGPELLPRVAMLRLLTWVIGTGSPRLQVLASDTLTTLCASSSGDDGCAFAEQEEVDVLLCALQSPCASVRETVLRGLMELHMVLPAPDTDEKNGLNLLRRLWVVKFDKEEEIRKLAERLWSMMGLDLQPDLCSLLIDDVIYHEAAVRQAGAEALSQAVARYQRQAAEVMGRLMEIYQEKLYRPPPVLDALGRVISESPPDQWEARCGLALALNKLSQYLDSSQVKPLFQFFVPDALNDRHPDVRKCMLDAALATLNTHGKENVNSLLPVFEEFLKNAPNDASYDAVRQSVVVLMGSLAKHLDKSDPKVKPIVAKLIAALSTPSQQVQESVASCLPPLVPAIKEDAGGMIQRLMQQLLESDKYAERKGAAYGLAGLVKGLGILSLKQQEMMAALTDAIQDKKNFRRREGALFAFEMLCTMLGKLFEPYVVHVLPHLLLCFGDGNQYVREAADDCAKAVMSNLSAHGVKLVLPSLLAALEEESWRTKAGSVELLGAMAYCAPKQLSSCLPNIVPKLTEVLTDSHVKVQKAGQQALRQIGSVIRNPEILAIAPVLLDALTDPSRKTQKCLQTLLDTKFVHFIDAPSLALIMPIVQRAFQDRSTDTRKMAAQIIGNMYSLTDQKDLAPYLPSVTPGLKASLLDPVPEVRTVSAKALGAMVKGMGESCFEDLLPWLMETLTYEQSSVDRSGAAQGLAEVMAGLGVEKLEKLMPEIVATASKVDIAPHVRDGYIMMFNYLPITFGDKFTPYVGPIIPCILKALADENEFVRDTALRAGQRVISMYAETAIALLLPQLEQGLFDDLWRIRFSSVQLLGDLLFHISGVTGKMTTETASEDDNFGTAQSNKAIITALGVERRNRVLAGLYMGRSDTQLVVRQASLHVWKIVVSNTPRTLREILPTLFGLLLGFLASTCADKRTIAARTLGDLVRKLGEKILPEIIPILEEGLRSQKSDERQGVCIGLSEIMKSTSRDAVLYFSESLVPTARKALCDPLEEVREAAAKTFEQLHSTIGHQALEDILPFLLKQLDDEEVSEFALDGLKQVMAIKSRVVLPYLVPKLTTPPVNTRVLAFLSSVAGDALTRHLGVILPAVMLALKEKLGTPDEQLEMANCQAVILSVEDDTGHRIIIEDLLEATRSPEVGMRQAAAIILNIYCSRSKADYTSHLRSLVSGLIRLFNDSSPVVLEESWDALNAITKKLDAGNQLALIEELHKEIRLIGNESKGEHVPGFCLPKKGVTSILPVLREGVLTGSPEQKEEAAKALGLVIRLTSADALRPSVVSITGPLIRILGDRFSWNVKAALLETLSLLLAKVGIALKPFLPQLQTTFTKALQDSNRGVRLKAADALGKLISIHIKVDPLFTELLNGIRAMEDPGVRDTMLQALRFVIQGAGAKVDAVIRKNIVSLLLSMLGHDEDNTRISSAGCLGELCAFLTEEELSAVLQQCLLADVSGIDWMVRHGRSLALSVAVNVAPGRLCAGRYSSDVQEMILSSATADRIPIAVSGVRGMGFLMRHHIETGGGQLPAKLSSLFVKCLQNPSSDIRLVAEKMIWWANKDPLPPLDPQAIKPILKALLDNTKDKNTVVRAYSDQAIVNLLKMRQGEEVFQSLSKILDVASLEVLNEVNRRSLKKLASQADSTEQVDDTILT
UniProt Q9UI32: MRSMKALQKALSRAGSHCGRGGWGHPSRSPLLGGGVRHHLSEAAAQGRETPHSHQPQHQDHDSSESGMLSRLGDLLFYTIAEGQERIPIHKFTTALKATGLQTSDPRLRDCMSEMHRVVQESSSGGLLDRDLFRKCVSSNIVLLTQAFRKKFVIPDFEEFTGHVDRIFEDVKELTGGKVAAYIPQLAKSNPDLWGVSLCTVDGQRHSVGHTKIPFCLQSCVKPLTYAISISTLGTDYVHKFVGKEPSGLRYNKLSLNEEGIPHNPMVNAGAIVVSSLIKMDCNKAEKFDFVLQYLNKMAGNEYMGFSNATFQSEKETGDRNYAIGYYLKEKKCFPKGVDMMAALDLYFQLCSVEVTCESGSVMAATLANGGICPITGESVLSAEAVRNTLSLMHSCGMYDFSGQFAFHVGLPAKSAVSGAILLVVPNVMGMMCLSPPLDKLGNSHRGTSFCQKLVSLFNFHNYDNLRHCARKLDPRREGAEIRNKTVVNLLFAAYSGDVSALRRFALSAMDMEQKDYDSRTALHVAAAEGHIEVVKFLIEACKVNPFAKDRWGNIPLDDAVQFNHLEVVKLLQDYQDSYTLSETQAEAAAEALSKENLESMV
UniProt P00367, 327-346: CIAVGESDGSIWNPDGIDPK
UniProt O95749: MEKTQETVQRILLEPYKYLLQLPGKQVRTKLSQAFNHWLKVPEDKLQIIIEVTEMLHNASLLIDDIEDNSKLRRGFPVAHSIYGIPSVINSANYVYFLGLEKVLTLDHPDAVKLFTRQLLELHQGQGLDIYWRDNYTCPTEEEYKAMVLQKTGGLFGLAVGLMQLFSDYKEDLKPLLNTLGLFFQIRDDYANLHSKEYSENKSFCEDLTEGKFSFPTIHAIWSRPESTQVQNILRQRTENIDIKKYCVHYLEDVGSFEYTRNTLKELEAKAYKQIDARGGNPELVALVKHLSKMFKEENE
UniProt Q13439: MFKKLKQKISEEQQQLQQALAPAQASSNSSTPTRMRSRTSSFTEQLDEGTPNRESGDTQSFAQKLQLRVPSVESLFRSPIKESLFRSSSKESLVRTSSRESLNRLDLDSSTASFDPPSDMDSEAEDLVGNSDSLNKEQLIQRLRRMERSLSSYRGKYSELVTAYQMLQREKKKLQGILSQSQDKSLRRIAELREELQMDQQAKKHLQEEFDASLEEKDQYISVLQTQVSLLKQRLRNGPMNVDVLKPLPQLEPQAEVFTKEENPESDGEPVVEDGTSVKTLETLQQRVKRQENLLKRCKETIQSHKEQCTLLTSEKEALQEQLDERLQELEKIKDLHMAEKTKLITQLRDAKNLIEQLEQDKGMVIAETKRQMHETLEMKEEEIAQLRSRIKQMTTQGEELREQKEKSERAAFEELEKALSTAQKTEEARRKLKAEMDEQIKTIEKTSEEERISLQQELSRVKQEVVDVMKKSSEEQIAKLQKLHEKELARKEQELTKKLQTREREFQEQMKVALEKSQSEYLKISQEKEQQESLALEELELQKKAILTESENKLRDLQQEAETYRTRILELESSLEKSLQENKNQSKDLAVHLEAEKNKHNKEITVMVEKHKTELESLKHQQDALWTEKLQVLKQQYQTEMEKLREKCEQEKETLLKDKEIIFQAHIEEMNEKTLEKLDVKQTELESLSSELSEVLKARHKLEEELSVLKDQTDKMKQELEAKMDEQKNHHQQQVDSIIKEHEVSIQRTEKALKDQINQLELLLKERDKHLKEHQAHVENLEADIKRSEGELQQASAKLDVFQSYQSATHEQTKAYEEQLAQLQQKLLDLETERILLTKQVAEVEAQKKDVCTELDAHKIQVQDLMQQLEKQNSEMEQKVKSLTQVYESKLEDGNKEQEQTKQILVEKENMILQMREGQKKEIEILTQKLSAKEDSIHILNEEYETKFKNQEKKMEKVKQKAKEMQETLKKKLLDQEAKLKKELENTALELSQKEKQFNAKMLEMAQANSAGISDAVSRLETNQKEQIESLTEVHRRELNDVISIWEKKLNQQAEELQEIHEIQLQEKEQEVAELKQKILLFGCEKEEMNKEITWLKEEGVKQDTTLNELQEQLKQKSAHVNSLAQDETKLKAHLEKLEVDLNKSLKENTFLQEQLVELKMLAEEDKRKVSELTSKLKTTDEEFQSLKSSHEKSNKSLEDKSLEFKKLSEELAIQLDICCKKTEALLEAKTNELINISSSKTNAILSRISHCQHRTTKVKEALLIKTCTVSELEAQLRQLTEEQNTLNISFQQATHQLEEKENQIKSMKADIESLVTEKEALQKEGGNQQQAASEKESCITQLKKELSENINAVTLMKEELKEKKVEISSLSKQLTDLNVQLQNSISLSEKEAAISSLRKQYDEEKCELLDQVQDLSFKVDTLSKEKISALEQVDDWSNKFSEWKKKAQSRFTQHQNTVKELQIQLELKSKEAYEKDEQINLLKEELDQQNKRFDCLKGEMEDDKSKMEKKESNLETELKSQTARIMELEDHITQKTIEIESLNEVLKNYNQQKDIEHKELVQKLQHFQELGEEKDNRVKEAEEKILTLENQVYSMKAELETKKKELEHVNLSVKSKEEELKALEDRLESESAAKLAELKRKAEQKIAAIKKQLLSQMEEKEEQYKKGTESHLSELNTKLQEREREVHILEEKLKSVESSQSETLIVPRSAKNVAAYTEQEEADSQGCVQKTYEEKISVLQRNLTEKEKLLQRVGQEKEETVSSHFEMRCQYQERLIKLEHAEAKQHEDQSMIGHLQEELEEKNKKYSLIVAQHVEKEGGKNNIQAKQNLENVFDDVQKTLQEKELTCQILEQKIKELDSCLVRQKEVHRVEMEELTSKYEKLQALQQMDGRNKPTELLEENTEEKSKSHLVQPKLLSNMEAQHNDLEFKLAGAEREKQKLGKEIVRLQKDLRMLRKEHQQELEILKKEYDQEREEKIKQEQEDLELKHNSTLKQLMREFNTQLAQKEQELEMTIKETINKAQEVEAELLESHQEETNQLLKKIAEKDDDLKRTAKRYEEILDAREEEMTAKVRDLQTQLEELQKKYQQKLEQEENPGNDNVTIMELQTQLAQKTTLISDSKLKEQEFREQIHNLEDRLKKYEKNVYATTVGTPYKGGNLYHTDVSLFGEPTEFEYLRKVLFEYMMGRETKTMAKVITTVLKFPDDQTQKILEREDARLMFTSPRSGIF
UniProt P38435: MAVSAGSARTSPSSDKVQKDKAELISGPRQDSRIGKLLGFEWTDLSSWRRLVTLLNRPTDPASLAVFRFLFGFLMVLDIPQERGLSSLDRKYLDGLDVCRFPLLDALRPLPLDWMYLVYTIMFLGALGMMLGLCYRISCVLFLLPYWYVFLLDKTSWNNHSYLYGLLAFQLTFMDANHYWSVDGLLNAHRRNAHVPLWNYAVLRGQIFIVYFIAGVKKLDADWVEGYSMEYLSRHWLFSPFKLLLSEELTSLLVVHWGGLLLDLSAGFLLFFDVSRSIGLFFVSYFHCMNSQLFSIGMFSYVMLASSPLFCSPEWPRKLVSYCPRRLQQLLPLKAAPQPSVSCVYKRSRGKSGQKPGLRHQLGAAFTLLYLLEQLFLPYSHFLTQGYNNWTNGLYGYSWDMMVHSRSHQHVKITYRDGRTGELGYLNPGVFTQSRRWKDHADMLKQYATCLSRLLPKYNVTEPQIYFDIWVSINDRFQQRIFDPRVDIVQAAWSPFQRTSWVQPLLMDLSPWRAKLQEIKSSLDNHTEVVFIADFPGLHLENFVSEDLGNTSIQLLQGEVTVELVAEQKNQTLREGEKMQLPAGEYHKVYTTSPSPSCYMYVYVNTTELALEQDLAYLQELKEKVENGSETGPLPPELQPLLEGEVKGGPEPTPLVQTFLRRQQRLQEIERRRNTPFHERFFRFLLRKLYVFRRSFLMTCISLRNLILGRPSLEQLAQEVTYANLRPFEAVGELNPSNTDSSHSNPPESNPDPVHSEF

How the values were obtained:
[1] = compound: ClCC(=O)N[C@@H]1CCCc2ccccc12; assay: log2 mean competition ratio of IA-DTB cysteine labelling (DMSO/compound) (log2 ratio); higher = stronger cysteine engagement by compound; conditions: treatment time: 4 h, cell line lysate: HEK293T
Procedure: (§1)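 IA-DTB competitive cysteine chemoproteomics in HEK293T RIPA lysate. Lysates were treated with compound 29 or 30 at 50 or 200 µM for 4 h, then IA-DTB (500 µM, 1 h), trypsin-digested, NeutrAvidin-enriched and analysed by diaPASEF. Competition ratio = intensity DMSO / intensity compound (n=4 treated, n=64 DMSO); binding: mean log2 CR ≥ 1 and p ≤ 0.05 plus QC filters. Target is the cysteine site.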

[2] = compound: ClCC(=O)N[C@H]1CCCc2ccccc12; assay: as above; conditions: treatment time: 4 h, cell line lysate: HEK293T
Procedure: as §1

GNAI1 C254 (UniProt P63096)
log2 mean competition ratio ([1]; 50 µM): 0.133
log2 mean competition ratio ([1]; 200 µM): -0.181

GCN1 C939 (UniProt Q92616)
log2 mean competition ratio ([1]; 50 µM): 0.4
log2 mean competition ratio ([1]; 200 µM): -0.233

GSK3B C76 (UniProt P49841)
log2 mean competition ratio ([1]; 50 µM): 0.238
log2 mean competition ratio ([1]; 200 µM): 0.157

GOLGA2 C427 (UniProt Q08379)
log2 mean competition ratio ([1]; 50 µM): -0.148
log2 mean competition ratio ([1]; 200 µM): -0.374
log2 mean competition ratio ([2]; 50 µM): -0.413
log2 mean competition ratio ([2]; 200 µM): -0.0447

GRK6 C57 (UniProt P43250)
log2 mean competition ratio ([1]; 50 µM): -0.129
log2 mean competition ratio ([1]; 200 µM): 0.116
log2 mean competition ratio ([2]; 50 µM): -0.275
log2 mean competition ratio ([2]; 200 µM): 0.0866

GDAP2 C348 (UniProt Q9NXN4)
log2 mean competition ratio ([1]; 50 µM): -0.0404
log2 mean competition ratio ([1]; 200 µM): 0.0733
log2 mean competition ratio ([2]; 50 µM): -0.146
log2 mean competition ratio ([2]; 200 µM): 0.0522

GLS2 C542 (UniProt Q9UI32)
log2 mean competition ratio ([1]; 50 µM): 0.413
log2 mean competition ratio ([1]; 200 µM): 0.101
log2 mean competition ratio ([2]; 50 µM): 0.327
log2 mean competition ratio ([2]; 200 µM): 0.0233

GRK3 C681 (UniProt P35626)
log2 mean competition ratio ([1]; 50 µM): 0.143
log2 mean competition ratio ([1]; 200 µM): -0.229
log2 mean competition ratio ([2]; 50 µM): -0.389
log2 mean competition ratio ([2]; 200 µM): -0.145

GSE1 C1151 (UniProt Q14687)
log2 mean competition ratio ([1]; 50 µM): -0.256
log2 mean competition ratio ([1]; 200 µM): 0.118
log2 mean competition ratio ([2]; 50 µM): 0.0365
log2 mean competition ratio ([2]; 200 µM): 0.245

GLUD1 C327 (UniProt P00367)
log2 mean competition ratio ([1]; 50 µM): -0.221
log2 mean competition ratio ([1]; 200 µM): -0.487
log2 mean competition ratio ([2]; 50 µM): 0.343
log2 mean competition ratio ([2]; 200 µM): -0.29

GNB2 C25 (UniProt P62879)
log2 mean competition ratio ([1]; 50 µM): 0.293
log2 mean competition ratio ([1]; 200 µM): -0.046
log2 mean competition ratio ([2]; 50 µM): 0.496
log2 mean competition ratio ([2]; 200 µM): 0.0604

GHDC C377 (UniProt Q8N2G8)
log2 mean competition ratio ([1]; 50 µM): 0.566
log2 mean competition ratio ([1]; 200 µM): 0.22
log2 mean competition ratio ([2]; 50 µM): -0.0245
log2 mean competition ratio ([2]; 200 µM): 0.0553

GGPS1 C205 (UniProt O95749)
log2 mean competition ratio ([1]; 50 µM): -0.0667
log2 mean competition ratio ([1]; 200 µM): -0.228
log2 mean competition ratio ([2]; 50 µM): -0.237
log2 mean competition ratio ([2]; 200 µM): -0.000822

GRB14 C360
log2 mean competition ratio ([1]; 50 µM): -0.058
log2 mean competition ratio ([1]; 200 µM): 0.0774
log2 mean competition ratio ([2]; 50 µM): -0.101
log2 mean competition ratio ([2]; 200 µM): 0.111

GCN1 C329 (UniProt Q92616)
log2 mean competition ratio ([1]; 50 µM): -0.113
log2 mean competition ratio ([1]; 200 µM): 0.00993
log2 mean competition ratio ([2]; 50 µM): -0.282
log2 mean competition ratio ([2]; 200 µM): 0.0612

GCC2 C48 (UniProt Q8IWJ2)
log2 mean competition ratio ([1]; 50 µM): -0.167
log2 mean competition ratio ([1]; 200 µM): -0.0277
log2 mean competition ratio ([2]; 50 µM): -0.584
log2 mean competition ratio ([2]; 200 µM): 0.0977

GOLGA4 C1862 (UniProt Q13439)
log2 mean competition ratio ([1]; 50 µM): -0.0183
log2 mean competition ratio ([1]; 200 µM): 0.164
log2 mean competition ratio ([2]; 50 µM): -0.385
log2 mean competition ratio ([2]; 200 µM): 0.0495

GOLGA4 C1269 (UniProt Q13439)
log2 mean competition ratio ([1]; 50 µM): 0.2
log2 mean competition ratio ([1]; 200 µM): 0.361
log2 mean competition ratio ([2]; 50 µM): -0.136
log2 mean competition ratio ([2]; 200 µM): -0.0625

GPC4 C423 (UniProt O75487)
log2 mean competition ratio ([1]; 50 µM): -0.0964
log2 mean competition ratio ([1]; 200 µM): 0.426
log2 mean competition ratio ([2]; 50 µM): 0.165
log2 mean competition ratio ([2]; 200 µM): 0.273

GPC3 C349
log2 mean competition ratio ([1]; 50 µM): 0.524
log2 mean competition ratio ([1]; 200 µM): -0.0858
log2 mean competition ratio ([2]; 50 µM): 0.194
log2 mean competition ratio ([2]; 200 µM): -0.146

GDAP2 C148 (UniProt Q9NXN4)
log2 mean competition ratio ([1]; 50 µM): -0.0436
log2 mean competition ratio ([1]; 200 µM): 0.0349
log2 mean competition ratio ([2]; 50 µM): 0.181
log2 mean competition ratio ([2]; 200 µM): 0.0235

GLG1 C1071 (UniProt Q92896)
log2 mean competition ratio ([1]; 50 µM): 0.0677
log2 mean competition ratio ([1]; 200 µM): 0.0429
log2 mean competition ratio ([2]; 50 µM): 0.0371
log2 mean competition ratio ([2]; 200 µM): -0.0181

GOLGA4 C1849 (UniProt Q13439)
log2 mean competition ratio ([1]; 50 µM): -0.234
log2 mean competition ratio ([1]; 200 µM): 0.0421
log2 mean competition ratio ([2]; 50 µM): -0.667
log2 mean competition ratio ([2]; 200 µM): -0.062

GIT2 C672 (UniProt Q14161)
log2 mean competition ratio ([1]; 50 µM): 0.0442
log2 mean competition ratio ([1]; 200 µM): 0.0214
log2 mean competition ratio ([2]; 50 µM): -0.0791
log2 mean competition ratio ([2]; 200 µM): -0.0581

GOLGA2 C794 (UniProt Q08379)
log2 mean competition ratio ([1]; 50 µM): 0.0475
log2 mean competition ratio ([1]; 200 µM): 0.0499
log2 mean competition ratio ([2]; 50 µM): -0.0715
log2 mean competition ratio ([2]; 200 µM): -0.0303

GPT2 C477 (UniProt Q8TD30)
log2 mean competition ratio ([1]; 50 µM): -0.201
log2 mean competition ratio ([1]; 200 µM): 0.0842
log2 mean competition ratio ([2]; 50 µM): -0.0723
log2 mean competition ratio ([2]; 200 µM): 0.00135

GON4L C2140 (UniProt Q3T8J9)
log2 mean competition ratio ([1]; 50 µM): 0.0416
log2 mean competition ratio ([1]; 200 µM): -0.102
log2 mean competition ratio ([2]; 50 µM): -0.208
log2 mean competition ratio ([2]; 200 µM): -0.144

GNPNAT1 C113 (UniProt Q96EK6)
log2 mean competition ratio ([1]; 50 µM): 0.196
log2 mean competition ratio ([1]; 200 µM): -0.494
log2 mean competition ratio ([2]; 50 µM): 0.0206
log2 mean competition ratio ([2]; 200 µM): -0.531

GNA12 C11 (UniProt Q03113)
log2 mean competition ratio ([1]; 50 µM): -6.53e-05
log2 mean competition ratio ([1]; 200 µM): 0.195
log2 mean competition ratio ([2]; 50 µM): -0.148
log2 mean competition ratio ([2]; 200 µM): -0.101

GSKIP C59 (UniProt Q9P0R6)
log2 mean competition ratio ([1]; 50 µM): -0.508
log2 mean competition ratio ([1]; 200 µM): -0.0301
log2 mean competition ratio ([2]; 50 µM): -0.0407
log2 mean competition ratio ([2]; 200 µM): 0.098

GPATCH2 C188 (UniProt Q9NW75)
log2 mean competition ratio ([1]; 50 µM): -0.0478
log2 mean competition ratio ([1]; 200 µM): 0.171
log2 mean competition ratio ([2]; 50 µM): 0.0201
log2 mean competition ratio ([2]; 200 µM): 0.23

GPATCH8 C1161 (UniProt Q9UKJ3)
log2 mean competition ratio ([1]; 50 µM): -0.125
log2 mean competition ratio ([1]; 200 µM): 0.0176
log2 mean competition ratio ([2]; 50 µM): -0.358
log2 mean competition ratio ([2]; 200 µM): 0.23

GCN1 C246 (UniProt Q92616)
log2 mean competition ratio ([1]; 50 µM): 0.356
log2 mean competition ratio ([1]; 200 µM): -0.0295
log2 mean competition ratio ([2]; 50 µM): 0.117
log2 mean competition ratio ([2]; 200 µM): 0.0747

GGCX C99 (UniProt P38435)
log2 mean competition ratio ([1]; 50 µM): -0.0693
log2 mean competition ratio ([1]; 200 µM): -0.0628
log2 mean competition ratio ([2]; 50 µM): 0.123
log2 mean competition ratio ([2]; 200 µM): 0.0789

GCC2 C297 (UniProt Q8IWJ2)
log2 mean competition ratio ([1]; 50 µM): -0.112
log2 mean competition ratio ([1]; 200 µM): 0.552
log2 mean competition ratio ([2]; 50 µM): -0.168
log2 mean competition ratio ([2]; 200 µM): 0.0781

GPATCH2L C274 (UniProt Q9NWQ4)
log2 mean competition ratio ([1]; 50 µM): 0.0301
log2 mean competition ratio ([1]; 200 µM): 0.158
log2 mean competition ratio ([2]; 50 µM): 0.139
log2 mean competition ratio ([2]; 200 µM): 0.212

GCN1 C1535 (UniProt Q92616)
log2 mean competition ratio ([1]; 50 µM): -0.0188
log2 mean competition ratio ([1]; 200 µM): 0.251
log2 mean competition ratio ([2]; 50 µM): 0.0486
log2 mean competition ratio ([2]; 200 µM): 0.12

GK5 C43 (UniProt Q6ZS86)
log2 mean competition ratio ([1]; 50 µM): 0.0984
log2 mean competition ratio ([1]; 200 µM): -0.00762
log2 mean competition ratio ([2]; 50 µM): 0.0911
log2 mean competition ratio ([2]; 200 µM): 0.0974

GOLGB1 C1964 (UniProt Q14789)
log2 mean competition ratio ([1]; 50 µM): -0.255
log2 mean competition ratio ([1]; 200 µM): 0.147
log2 mean competition ratio ([2]; 50 µM): -0.886
log2 mean competition ratio ([2]; 200 µM): 0.00173

GSK3A C241 (UniProt P49840)
log2 mean competition ratio ([1]; 50 µM): 0.379
log2 mean competition ratio ([1]; 200 µM): -0.0684
log2 mean competition ratio ([2]; 50 µM): 0.282
log2 mean competition ratio ([2]; 200 µM): -0.168

GMEB2 C323 (UniProt Q9UKD1)
log2 mean competition ratio ([1]; 50 µM): -0.31
log2 mean competition ratio ([1]; 200 µM): 0.224
log2 mean competition ratio ([2]; 50 µM): -0.346
log2 mean competition ratio ([2]; 200 µM): 0.295

GGNBP2 C554 (UniProt Q9H3C7)
log2 mean competition ratio ([1]; 50 µM): -0.206
log2 mean competition ratio ([1]; 200 µM): -0.0399
log2 mean competition ratio ([2]; 50 µM): -0.255
log2 mean competition ratio ([2]; 200 µM): 0.278
